No constants are given. Whether binding was seen depends on the method and setting. In cells and extracts the contact can be indirect. A yes stands for co-enrichment or nearness to the bait. Other partners may have been found.
Biological target: T1, FKBP7 (human (endogenous in IGR-CaP1-Dtx-R, RPE-1 and 22RV1-Dtx-R)) (UniProt Q9Y680)
T1 sequence: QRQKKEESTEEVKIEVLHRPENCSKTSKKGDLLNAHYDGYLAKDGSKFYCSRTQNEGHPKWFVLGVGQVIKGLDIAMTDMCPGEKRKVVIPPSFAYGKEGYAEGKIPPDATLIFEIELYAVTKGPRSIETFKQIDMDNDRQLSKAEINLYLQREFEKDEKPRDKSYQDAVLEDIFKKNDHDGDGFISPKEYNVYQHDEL
Test: affinity purification with mass spectrometry

Sequences of proteins named here, by UniProt entry; tags and fusion partners are left off.
UniProt P06730: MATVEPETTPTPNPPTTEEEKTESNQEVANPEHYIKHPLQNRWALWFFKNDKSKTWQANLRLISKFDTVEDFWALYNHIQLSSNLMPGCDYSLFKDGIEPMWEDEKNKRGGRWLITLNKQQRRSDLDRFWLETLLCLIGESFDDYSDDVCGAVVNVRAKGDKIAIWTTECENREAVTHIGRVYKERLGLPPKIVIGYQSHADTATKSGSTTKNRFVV

| binding | Substance |
| --- | --- |
| binds | eIF4A |
| binds | eIF4E (from UniProt P06730 1-217) |
| binds | eIF4G |
| binds | Hsp70 (human (endogenous in IGR-CaP1-Dtx-R)) |
